Test results reported in PubChem BioAssay AID250 (DTP/NCI, 2004).
The list does not hold the whole screen: it is rich in T/C values a quarter to a half above the control, in often repeated tests (any T/C) and in doses without a T/C. Other doses and runs of a compound stand elsewhere. T/C gives the treated animals as a percentage of the vehicle group. Some doses have a count of surviving animals in place of a T/C: the source files T/C as zero there, which appears to mark a toxic dose or a test without result, not a measured value. Some survivor counts are full or nearly so, which does not show that the dose was tolerated: survival well below the control is almost never listed, so the zero probably covers shortened survival too. For some of these results: Survivors were counted at the toxicity check, usually on the fifth day, unless a day is given; later deaths do not show. Schedules are NCI's codes, read here as Q, the interval in days (D) or hours (H), X, the number of doses. Some schedules carry Z or #; the key to these is not given. Some entries hold several experiments; their values stand side by side, smallest first. Some structures stand for samples that the source files as different forms (salt, stereo form or complex); doses refer to the form tested. For some of these results: Where survival is the endpoint, the PubChem record calls one and a half times the control and up active, and a quarter to a half above the control has no call in these data; cut-offs in other NCI protocols can differ. Counts like (3×) say how often a value occurs here. Some T/C values are followed by the survivors on the day toxicity was checked, most often the fifth; without a count, all were alive then.

Legend:
[1] = tested on: BDF1 mice, L1210 leukemia sc; experiment: NCI In Vivo Anticancer Drug Screen. Data for tumor model L1210 Leukemia (subcutaneous) in B6D2F1 (BDF1) mice; details: higher T/C = longer survival
How it was run: (§1)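 Transplantable tumor-bearing mice; survival or tumor size recorded; result = T/C, treated vs vehicle control.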

[2] = tested on: BDF1 mice, L1210 leukemia sc, survival T/C; experiment: as above; details: higher T/C = longer survival
How it was run: as §1

[3] = T/C endpoint: median survival time, dose: 36.0 mg/kg/injection, schedule: Q01DX Z (sc), vehicle: saline

CC(=O)NC(CCC(=O)C=[N+]=N)C(=O)O (stereo not given)
T/C ([1]; T/C endpoint: median survival time, dose: 0.31 mg/kg/injection, schedule: Q01DX Z (sc), vehicle: water): 136 % of control | T/C ([1]; T/C endpoint: median survival time, dose: 0.47 mg/kg/injection, schedule: Q01DX Z (sc), vehicle: water): 140 % of control | T/C ([1]; T/C endpoint: median survival time, dose: 0.52 mg/kg/injection, schedule: Q01DX Z (sc), vehicle: water): 140 % of control | T/C ([1]; T/C endpoint: median survival time, dose: 0.52 mg/kg/injection, schedule: Q#A X Z (sc), vehicle: water): 131 % of control [9 of 10 alive] | T/C ([1]; T/C endpoint: median survival time, dose: 0.67 mg/kg/injection, schedule: Q01DX Z (sc), vehicle: water): 145 % of control | T/C ([1]; T/C endpoint: median survival time, dose: 0.78 mg/kg/injection, schedule: Q01DX Z (sc), vehicle: water): 130 % of control | T/C ([1]; T/C endpoint: median survival time, dose: 0.86 mg/kg/injection, schedule: Q01DX Z (sc), vehicle: water): 136 and 145 % of control | T/C ([1]; T/C endpoint: median survival time, dose: 0.86 mg/kg/injection, schedule: Q#A X Z (sc), vehicle: water): 131 % of control [9 of 10 alive] | T/C ([1]; T/C endpoint: median survival time, dose: 1.12 mg/kg/injection, schedule: Q01DX Z (sc), vehicle: water): 133 % of control | T/C ([1]; T/C endpoint: median survival time, dose: 1.3 mg/kg/injection, schedule: Q01DX Z (sc), vehicle: water): 145 % of control | T/C ([1]; T/C endpoint: median survival time, dose: 1.44 mg/kg/injection, schedule: Q01DX Z (sc), vehicle: water): 131 and 136 % of control | T/C ([1]; T/C endpoint: median survival time, dose: 1.87 mg/kg/injection, schedule: Q01DX Z (sc), vehicle: water): 125 % of control | T/C ([1]; T/C endpoint: median survival time, dose: 2.4 mg/kg/injection, schedule: Q01DX Z (sc), vehicle: water): 127, 136, 140 % of control [8 of 10 alive] | T/C ([1]; T/C endpoint: median survival time, dose: 2.4 mg/kg/injection, schedule: Q02DX Z (sc), vehicle: water): 127 % of control | T/C ([1]; T/C endpoint: median survival time, dose: 3.6 mg/kg/injection, schedule: Q01DX Z (sc), vehicle: water): 130 % of control | T/C ([1]; T/C endpoint: median survival time, dose: 6.0 mg/kg/injection, schedule: Q01DX Z (sc), vehicle: water): 130 % of control | T/C ([1]; T/C endpoint: median survival time, dose: 130.0 mg/kg/injection, schedule: Q01DX001 (sc), vehicle: water): 125 % of control | T/C ([1]; T/C endpoint: median survival time, dose: 130.0 mg/kg/injection, schedule: Q## X Z (sc), vehicle: water): 125 and 140 % of control | T/C ([1]; T/C endpoint: median survival time, dose: 216.0 mg/kg/injection, schedule: Q01DX001 (sc), vehicle: water): 125 and 130 % of control | T/C ([1]; T/C endpoint: median survival time, dose: 216.0 mg/kg/injection, schedule: Q07DX Z (sc), vehicle: water): 130 % of control | T/C ([1]; T/C endpoint: median survival time, dose: 360.0 mg/kg/injection, schedule: Q01DX001 (sc), vehicle: water): 130 % of control (2×) | T/C ([1]; T/C endpoint: median survival time, dose: 360.0 mg/kg/injection, schedule: Q## X Z (sc), vehicle: water): 135 % of control | T/C ([1]; T/C endpoint: median survival time, dose: 600.0 mg/kg/injection, schedule: Q01DX001 (sc), vehicle: water): 130 % of control | T/C ([1]; T/C endpoint: median survival time, dose: 600.0 mg/kg/injection, schedule: Q07DX Z (sc), vehicle: water): 125 % of control | survivor count ([2]; T/C endpoint: median survival time, dose: 0.19 mg/kg/injection, schedule: Q01DX Z (sc), vehicle: water): 5 of 10

C=CC(CN1CC1)OC(C)=O (stereo not given)
T/C [1, 3]: 133 % of control | survivor count ([2]; T/C endpoint: median survival time, dose: 2.8 mg/kg/injection, schedule: Q01DX Z (sc), vehicle: saline): 0 of 10 | survivor count ([2]; T/C endpoint: median survival time, dose: 4.7 mg/kg/injection, schedule: Q01DX Z (sc), vehicle: saline): 4 of 10 | survivor count ([2]; T/C endpoint: median survival time, dose: 7.8 mg/kg/injection, schedule: Q01DX Z (sc), vehicle: saline): 6 of 10 | survivor count ([2]; T/C endpoint: median survival time, dose: 13.0 mg/kg/injection, schedule: Q01DX Z (sc), vehicle: saline): 5 of 10 | survivor count ([2]; T/C endpoint: median survival time, dose: 22.0 mg/kg/injection, schedule: Q01DX Z (sc), vehicle: saline): 6 of 10 | survivor count [2, 3]: 7 of 10 | survivor count ([2]; T/C endpoint: median survival time, dose: 60.0 mg/kg/injection, schedule: Q01DX Z (sc), vehicle: saline): 4 of 10 | survivor count ([2]; T/C endpoint: median survival time, dose: 100.0 mg/kg/injection, schedule: Q01DX Z (sc), vehicle: saline): 0 of 10 and 5 of 10

NC(Cc1ccc(N(CCCl)CCCl)cc1)C(=O)O (stereo not given)
T/C ([1]; T/C endpoint: median survival time, dose: 14.0 mg/kg/injection, schedule: Q01DX Z (sc), vehicle: saline): 133 % of control | T/C ([1]; T/C endpoint: median survival time, dose: 14.0 mg/kg/injection, schedule: Q01DX Z (sc), vehicle: water): 127 % of control | T/C ([1]; T/C endpoint: median survival time, dose: 23.0 mg/kg/injection, schedule: Q01DX Z (sc), vehicle: saline): 133 % of control | T/C ([1]; T/C endpoint: median survival time, dose: 23.3 mg/kg/injection, schedule: Q01DX Z (sc), vehicle: water): 140 % of control | T/C ([1]; T/C endpoint: median survival time, dose: 38.9 mg/kg/injection, schedule: Q01DX Z (sc), vehicle: water): 127 % of control | T/C ([1]; T/C endpoint: median survival time, dose: 65.0 mg/kg/injection, schedule: Q01DX Z (sc), vehicle: saline): 133 % of control | survivor count ([2]; T/C endpoint: median survival time, dose: 1.8 mg/kg/injection, schedule: Q01DX Z (sc), vehicle: saline): 5 of 10 and 6 of 10 | survivor count ([2]; T/C endpoint: median survival time, dose: 3.0 mg/kg/injection, schedule: Q01DX Z (sc), vehicle: saline): 4 of 10

Nc1ncnc2[nH]ncc12
T/C ([1]; T/C endpoint: median survival time, dose: 14.0 mg/kg/injection, schedule: Q01DX Z (sc), vehicle: methylcellulose (MC)): 145 % of control | T/C ([1]; T/C endpoint: median survival time, dose: 16.9 mg/kg/injection, schedule: Q01DX Z (sc), vehicle: methylcellulose (MC)): 133 % of control | T/C ([1]; T/C endpoint: median survival time, dose: 23.3 mg/kg/injection, schedule: Q01DX Z (sc), vehicle: methylcellulose (MC)): 125 % of control | T/C ([1]; T/C endpoint: median survival time, dose: 28.1 mg/kg/injection, schedule: Q01DX Z (sc), vehicle: methylcellulose (MC)): 129 % of control | survivor count ([2]; T/C endpoint: median survival time, dose: 38.9 mg/kg/injection, schedule: Q01DX Z (sc), vehicle: methylcellulose (MC)): 10 of 10 | survivor count ([2]; T/C endpoint: median survival time, dose: 64.8 mg/kg/injection, schedule: Q01DX Z (sc), vehicle: methylcellulose (MC)): 8 of 10 | survivor count ([2]; T/C endpoint: median survival time, dose: 108.0 mg/kg/injection, schedule: Q01DX Z (sc), vehicle: methylcellulose (MC)): 0 of 10

CCC(=O)OCC1OC(n2cnc3c(=S)nc(N)[nH]c32)C(OC(=O)CC)C1OC(=O)CC (stereo not given)
T/C ([1]; T/C endpoint: median survival time, dose: 8.4 mg/kg/injection, schedule: Q01DX Z (sc), vehicle: carboxymethylcellulose (CMC)): 131 % of control | survivor count ([2]; T/C endpoint: median survival time, dose: 39.0 mg/kg/injection, schedule: Q01DX Z (sc), vehicle: carboxymethylcellulose (CMC)): 5 of 8

COc1cc(NS(C)(=O)=O)ccc1Nc1c2ccc([N+](=O)[O-])cc2nc2c(C)cccc12
T/C ([1]; T/C endpoint: mean survival time, dose: 2.5 mg/kg/injection, schedule: Q01DX009 (ip), vehicle: saline): 125 % of control | T/C ([1]; T/C endpoint: mean survival time, dose: 5.0 mg/kg/injection, schedule: Q01DX009 (ip), vehicle: saline): 128 % of control | survivor count ([2]; T/C endpoint: mean survival time, dose: 10.0 mg/kg/injection, schedule: Q01DX009 (ip), vehicle: saline): 10 of 10 | survivor count ([2]; T/C endpoint: mean survival time, dose: 20.0 mg/kg/injection, schedule: Q01DX009 (ip), vehicle: saline): 8 of 10
